Laboratory results: PubChem BioAssay AID1259308 (NCATS, 2017)

- Purpose: 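Genes whose loss raises luciferase production in HEK293 cells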 (primary screen)
- System: human HEK293 embryonic kidney cells stably expressing firefly luciferase (HEK-CMV-Luc2-Hygro)
- Reagent: single siRNA against human genes, 0.8 pmol siRNA per well
- Timing: 72 h
- Measured: 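Luciferase light (ONE-Glo) measured on one replicate plate set and viability (CellTiter-Glo) on the other, scaled to a negative control siRNA, with robust z-scores and luciferase per cell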
- Direction: total luciferase, z-score and total luciferase, % of control: higher = more reporter protein produced; luciferase per cell, z-score: higher = more reporter output per viable cell
- Call rule: 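Active when the median/MAD z-score for overall luciferase is greater than 3; a gene was taken forward for validation with new siRNAs if at least two of its three siRNAs passed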
- Meaning of the calls: active = raised luciferase; inactive = no rise
This is an unselected part of about 59,000 reagents. Of all reagents, about 1,510 (2.6%) got an active call. 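Calls use total luciferase alone and ignore viability, so some active siRNAs may act by altering cell number.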 Reagents against one gene are numbered here. Further read-outs or replicates are left out here. No sequences are given here.

The first 3 entries, ahead of the listing:
| target gene | reagent | total luciferase, z-score | total luciferase, % of control | luciferase per cell, z-score | Call |
| --- | --- | --- | --- | --- | --- |
| PSAT1 (phosphoserine aminotransferase 1) | 1 | -0.637 | 69.2 | -0.872 | inactive |
| PSAT1 (phosphoserine aminotransferase 1) | 2 | -0.744 | 67.1 | -1.57 | inactive |
| PSAT1 (phosphoserine aminotransferase 1) | 3 | 0.0971 | 83.8 | 0.477 | inactive |

Main list, repeating the preview:
| target gene | reagent | total luciferase, z-score | total luciferase, % of control | luciferase per cell, z-score | Call |
| --- | --- | --- | --- | --- | --- |
| PSAT1 (phosphoserine aminotransferase 1) | 1 | -0.637 | 69.2 | -0.872 | inactive |
| PSAT1 (phosphoserine aminotransferase 1) | 2 | -0.744 | 67.1 | -1.57 | inactive |
| PSAT1 (phosphoserine aminotransferase 1) | 3 | 0.0971 | 83.8 | 0.477 | inactive |
| MERTK (MER proto-oncogene, tyrosine kinase) | 1 | 0.708 | 96 | 0.361 | inactive |
| MERTK (MER proto-oncogene, tyrosine kinase) | 2 | -0.966 | 62.7 | -1.27 | inactive |
| MERTK (MER proto-oncogene, tyrosine kinase) | 3 | -0.0148 | 81.6 | -0.206 | inactive |
| SH3RF3 (SH3 domain containing ring finger 3) | 1 | 0.207 | 86 | 0.385 | inactive |
| SH3RF3 (SH3 domain containing ring finger 3) | 2 | -0.736 | 67.2 | -0.715 | inactive |
| SH3RF3 (SH3 domain containing ring finger 3) | 3 | 1.88 | 119 | 1.43 | inactive |
| SELL (selectin L) | 1 | 0.00604 | 82 | -0.632 | inactive |
| SELL (selectin L) | 2 | -0.831 | 65.4 | -0.972 | inactive |
| SELL (selectin L) | 3 | -0.187 | 78.2 | -0.359 | inactive |
| TATDN3 (TatD DNase domain containing 3) | 1 | 1.4 | 110 | 1.97 | inactive |
| TATDN3 (TatD DNase domain containing 3) | 2 | -0.213 | 77.6 | -0.28 | inactive |
| TATDN3 (TatD DNase domain containing 3) | 3 | -1.09 | 60.1 | -0.691 | inactive |
| COL28A1 (collagen type XXVIII alpha 1 chain) | 1 | -1.54 | 51.2 | -1.7 | inactive |
| COL28A1 (collagen type XXVIII alpha 1 chain) | 2 | 1.29 | 108 | 1.24 | inactive |
| COL28A1 (collagen type XXVIII alpha 1 chain) | 3 | -0.358 | 74.8 | -0.532 | inactive |
| GMDS (GDP-mannose 4,6-dehydratase) | 1 | 0.0898 | 83.7 | 0.011 | inactive |
| GMDS (GDP-mannose 4,6-dehydratase) | 2 | 3.37 | 149 | 1.5 | active |
| GMDS (GDP-mannose 4,6-dehydratase) | 3 | 2.5 | 132 | 2.7 | inactive |
| EFHB (EF-hand domain family member B) | 1 | 0.147 | 84.8 | 0.236 | inactive |
| EFHB (EF-hand domain family member B) | 2 | -0.488 | 72.2 | -0.509 | inactive |
| EFHB (EF-hand domain family member B) | 3 | -2.1 | 40.1 | -1.79 | inactive |
| CALHM1 (calcium homeostasis modulator 1) | 1 | -1.54 | 51.2 | -1.28 | inactive |
| CALHM1 (calcium homeostasis modulator 1) | 2 | 2.37 | 129 | 1.82 | inactive |
| CALHM1 (calcium homeostasis modulator 1) | 3 | -1.02 | 61.5 | -1.41 | inactive |
| RAB2B (RAB2B, member RAS oncogene family) | 1 | -0.264 | 76.6 | -0.201 | inactive |
| RAB2B (RAB2B, member RAS oncogene family) | 2 | 1.15 | 105 | 0.616 | inactive |
| RAB2B (RAB2B, member RAS oncogene family) | 3 | 0.132 | 84.5 | 0.208 | inactive |
| SCAF4 (SR-related CTD associated factor 4) | 1 | 0.403 | 89.9 | -0.0109 | inactive |
| SCAF4 (SR-related CTD associated factor 4) | 2 | -1.14 | 59.2 | -1.24 | inactive |
| SCAF4 (SR-related CTD associated factor 4) | 3 | 0.262 | 87.1 | -0.202 | inactive |
| FGF23 (fibroblast growth factor 23) | 1 | -0.907 | 63.8 | -0.653 | inactive |
| FGF23 (fibroblast growth factor 23) | 2 | 0.425 | 90.3 | 1.28 | inactive |
| FGF23 (fibroblast growth factor 23) | 3 | -0.739 | 67.2 | 0.308 | inactive |
| REM2 (RRAD and GEM like GTPase 2) | 1 | 0.464 | 91.1 | 0.133 | inactive |
| REM2 (RRAD and GEM like GTPase 2) | 2 | -0.146 | 79 | -0.0926 | inactive |
| REM2 (RRAD and GEM like GTPase 2) | 3 | 0.346 | 88.8 | -0.21 | inactive |
| CDC42SE1 (CDC42 small effector 1) | 1 | -0.699 | 68 | -0.695 | inactive |
| CDC42SE1 (CDC42 small effector 1) | 2 | 2.72 | 136 | 2.53 | inactive |
| CDC42SE1 (CDC42 small effector 1) | 3 | -0.167 | 78.6 | -0.168 | inactive |
| KLHDC8A (kelch domain containing 8A) | 1 | 3.19 | 145 | 3.04 | active |
| KLHDC8A (kelch domain containing 8A) | 2 | 0.748 | 96.8 | 0.682 | inactive |
| KLHDC8A (kelch domain containing 8A) | 3 | -2.24 | 37.2 | -2.4 | inactive |
| INF2 (inverted formin 2) | 1 | 2.23 | 126 | 2.34 | inactive |
| INF2 (inverted formin 2) | 2 | -1.41 | 53.8 | -1.92 | inactive |
| INF2 (inverted formin 2) | 3 | 0.0203 | 82.3 | -0.113 | inactive |
| CPT2 (carnitine palmitoyltransferase 2) | 1 | 0.373 | 89.3 | 0.729 | inactive |
| CPT2 (carnitine palmitoyltransferase 2) | 2 | -0.0519 | 80.9 | 0.449 | inactive |
| CPT2 (carnitine palmitoyltransferase 2) | 3 | -1.86 | 44.9 | -2.55 | inactive |
| CCM2 (CCM2 scaffold protein) | 1 | -0.384 | 74.3 | 0.0969 | inactive |
| CCM2 (CCM2 scaffold protein) | 2 | -1.11 | 59.9 | -0.93 | inactive |
| CCM2 (CCM2 scaffold protein) | 3 | 1.84 | 118 | 1.36 | inactive |
| SETD6 (SET domain containing 6, protein lysine methyltransferase) | 1 | -1.14 | 59.1 | -0.667 | inactive |
| SETD6 (SET domain containing 6, protein lysine methyltransferase) | 2 | -0.231 | 77.3 | -0.195 | inactive |
| SETD6 (SET domain containing 6, protein lysine methyltransferase) | 3 | 1.53 | 112 | 0.583 | inactive |
